± gives the standard deviation of the averaged measurements. The list shows a part of the results, in another mix than the full data.
Compound: Nc1ncnc2c1ncn2[C@@H]1O[C@H](COP(=O)(O)OP(=O)(O)NP(=O)(O)O)[C@@H](O)[C@H]1O [adenylyl imidodiphosphate]
Assay: NP40-soluble protein abundance relative to vehicle (solubility fold change) (ratio); higher = more soluble protein in presence of AMP-PNP
Summary of the method: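 Jurkat crude lysate (Dounce-homogenised) was treated with eight concentrations from 0.1 to 10 mM for 10 min at room temperature, then 3 min at 37 °C. It was solubilised with 0.8% NP40 and benzonase (60 min, 4 °C) and ultracentrifuged, and the supernatant was TMT-labelled for LC-MS/MS. Intensities were vsn-normalised, and the value is the fold change against the NP40-processed vehicle per replicate, from three independent experiments.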

The chains behind the UniProt entries cited, without tags or fusion partners. Where a name states a change or a piece, a line headed by the entry shows the natural chain unless it says otherwise.
UniProt P61204: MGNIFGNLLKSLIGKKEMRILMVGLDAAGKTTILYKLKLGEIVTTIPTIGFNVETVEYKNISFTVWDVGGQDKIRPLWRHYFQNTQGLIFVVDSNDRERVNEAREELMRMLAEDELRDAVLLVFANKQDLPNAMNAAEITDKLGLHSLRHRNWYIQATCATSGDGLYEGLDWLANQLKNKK
UniProt P84095: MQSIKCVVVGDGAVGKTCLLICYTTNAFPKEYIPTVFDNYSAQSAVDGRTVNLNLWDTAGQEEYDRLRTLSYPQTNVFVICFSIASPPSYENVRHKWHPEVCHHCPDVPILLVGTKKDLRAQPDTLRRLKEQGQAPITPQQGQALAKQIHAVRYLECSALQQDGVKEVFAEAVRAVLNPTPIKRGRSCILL
UniProt P56181: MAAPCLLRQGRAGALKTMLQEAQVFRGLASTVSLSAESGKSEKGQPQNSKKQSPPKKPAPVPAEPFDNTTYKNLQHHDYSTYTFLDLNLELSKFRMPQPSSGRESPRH
UniProt P78540: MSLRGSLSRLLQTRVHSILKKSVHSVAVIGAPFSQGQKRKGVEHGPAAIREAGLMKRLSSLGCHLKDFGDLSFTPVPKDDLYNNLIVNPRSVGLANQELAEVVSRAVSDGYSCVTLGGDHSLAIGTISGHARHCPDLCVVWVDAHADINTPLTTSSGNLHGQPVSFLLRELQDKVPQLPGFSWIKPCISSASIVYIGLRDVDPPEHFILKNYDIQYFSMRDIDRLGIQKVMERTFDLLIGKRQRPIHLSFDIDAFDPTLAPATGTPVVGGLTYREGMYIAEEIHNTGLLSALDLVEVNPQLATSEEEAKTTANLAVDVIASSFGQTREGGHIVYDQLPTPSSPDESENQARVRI
UniProt Q01850: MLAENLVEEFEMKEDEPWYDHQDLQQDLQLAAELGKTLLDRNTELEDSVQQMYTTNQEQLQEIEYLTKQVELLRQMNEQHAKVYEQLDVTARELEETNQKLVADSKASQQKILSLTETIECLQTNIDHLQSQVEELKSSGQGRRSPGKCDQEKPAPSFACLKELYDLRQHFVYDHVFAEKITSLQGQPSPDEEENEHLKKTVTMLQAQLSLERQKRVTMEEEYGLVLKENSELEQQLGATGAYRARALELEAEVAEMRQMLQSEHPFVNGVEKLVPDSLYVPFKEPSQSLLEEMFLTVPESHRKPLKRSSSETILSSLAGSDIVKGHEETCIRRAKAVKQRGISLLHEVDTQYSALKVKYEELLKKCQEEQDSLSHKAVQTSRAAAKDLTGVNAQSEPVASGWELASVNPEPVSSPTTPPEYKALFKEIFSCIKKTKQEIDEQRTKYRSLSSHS
UniProt P61086: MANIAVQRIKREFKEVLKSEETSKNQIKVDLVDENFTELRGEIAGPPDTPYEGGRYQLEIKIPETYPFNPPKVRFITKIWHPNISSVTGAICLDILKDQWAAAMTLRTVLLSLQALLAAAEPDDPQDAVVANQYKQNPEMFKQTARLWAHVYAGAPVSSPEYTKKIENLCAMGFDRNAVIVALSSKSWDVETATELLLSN
UniProt P68371, whole entry: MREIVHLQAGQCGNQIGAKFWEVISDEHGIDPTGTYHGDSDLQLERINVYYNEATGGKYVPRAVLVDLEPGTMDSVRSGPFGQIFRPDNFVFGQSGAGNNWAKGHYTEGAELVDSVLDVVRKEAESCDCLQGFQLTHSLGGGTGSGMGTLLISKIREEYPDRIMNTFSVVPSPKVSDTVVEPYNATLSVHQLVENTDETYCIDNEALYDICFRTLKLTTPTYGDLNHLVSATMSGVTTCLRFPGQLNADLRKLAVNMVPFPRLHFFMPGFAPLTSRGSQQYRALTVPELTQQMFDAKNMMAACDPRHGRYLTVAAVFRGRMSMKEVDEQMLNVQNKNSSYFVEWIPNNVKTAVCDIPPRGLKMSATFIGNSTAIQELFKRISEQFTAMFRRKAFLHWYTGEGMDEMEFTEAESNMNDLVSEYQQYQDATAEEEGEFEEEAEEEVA
UniProt P62834: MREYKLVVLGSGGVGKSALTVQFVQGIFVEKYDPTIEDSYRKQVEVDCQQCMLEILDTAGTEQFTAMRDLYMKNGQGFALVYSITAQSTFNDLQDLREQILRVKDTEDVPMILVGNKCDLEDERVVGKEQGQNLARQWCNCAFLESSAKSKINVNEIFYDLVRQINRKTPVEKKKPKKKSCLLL
UniProt Q06330: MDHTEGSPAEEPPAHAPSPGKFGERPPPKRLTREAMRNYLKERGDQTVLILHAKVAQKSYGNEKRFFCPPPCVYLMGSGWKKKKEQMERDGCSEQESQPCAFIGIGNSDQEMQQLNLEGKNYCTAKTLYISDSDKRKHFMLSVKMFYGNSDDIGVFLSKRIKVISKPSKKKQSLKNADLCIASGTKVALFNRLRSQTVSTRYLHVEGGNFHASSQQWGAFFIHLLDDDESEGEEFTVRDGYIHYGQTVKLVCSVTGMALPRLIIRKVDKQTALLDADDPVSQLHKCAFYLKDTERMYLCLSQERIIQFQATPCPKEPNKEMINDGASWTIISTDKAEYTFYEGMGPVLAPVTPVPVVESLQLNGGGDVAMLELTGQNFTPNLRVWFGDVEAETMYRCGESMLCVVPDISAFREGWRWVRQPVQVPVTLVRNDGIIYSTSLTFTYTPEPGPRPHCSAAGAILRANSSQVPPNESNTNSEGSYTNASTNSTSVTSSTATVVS
UniProt P60604: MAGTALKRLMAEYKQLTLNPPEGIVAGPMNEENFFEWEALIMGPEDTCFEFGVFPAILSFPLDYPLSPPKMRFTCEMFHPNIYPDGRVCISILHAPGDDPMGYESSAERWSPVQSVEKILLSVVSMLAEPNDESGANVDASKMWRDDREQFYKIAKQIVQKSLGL
UniProt P78362, whole entry, looked up: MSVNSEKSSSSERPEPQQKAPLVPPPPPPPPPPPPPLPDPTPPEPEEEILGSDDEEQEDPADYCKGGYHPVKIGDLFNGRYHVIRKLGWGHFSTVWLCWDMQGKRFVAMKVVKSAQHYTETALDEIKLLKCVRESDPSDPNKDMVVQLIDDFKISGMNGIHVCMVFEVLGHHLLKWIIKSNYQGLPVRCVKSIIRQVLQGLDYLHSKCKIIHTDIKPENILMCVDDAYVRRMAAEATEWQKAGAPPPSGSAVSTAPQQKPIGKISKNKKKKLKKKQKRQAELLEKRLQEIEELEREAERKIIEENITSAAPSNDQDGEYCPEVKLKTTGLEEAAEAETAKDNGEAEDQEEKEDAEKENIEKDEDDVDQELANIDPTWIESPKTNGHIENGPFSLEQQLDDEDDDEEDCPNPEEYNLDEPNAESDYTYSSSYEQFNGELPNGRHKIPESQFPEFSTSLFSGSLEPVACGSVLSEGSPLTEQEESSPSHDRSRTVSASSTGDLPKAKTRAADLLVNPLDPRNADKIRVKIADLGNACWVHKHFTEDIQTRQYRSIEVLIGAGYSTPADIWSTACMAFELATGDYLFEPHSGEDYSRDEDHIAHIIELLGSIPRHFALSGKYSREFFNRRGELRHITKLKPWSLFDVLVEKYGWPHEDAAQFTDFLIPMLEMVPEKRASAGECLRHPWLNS
UniProt P60953, whole entry, looked up: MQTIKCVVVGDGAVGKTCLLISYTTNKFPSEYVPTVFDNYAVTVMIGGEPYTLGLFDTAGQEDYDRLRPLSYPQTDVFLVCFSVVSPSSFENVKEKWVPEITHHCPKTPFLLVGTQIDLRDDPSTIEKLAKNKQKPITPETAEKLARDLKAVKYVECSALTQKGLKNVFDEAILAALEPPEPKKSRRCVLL
UniProt Q07065: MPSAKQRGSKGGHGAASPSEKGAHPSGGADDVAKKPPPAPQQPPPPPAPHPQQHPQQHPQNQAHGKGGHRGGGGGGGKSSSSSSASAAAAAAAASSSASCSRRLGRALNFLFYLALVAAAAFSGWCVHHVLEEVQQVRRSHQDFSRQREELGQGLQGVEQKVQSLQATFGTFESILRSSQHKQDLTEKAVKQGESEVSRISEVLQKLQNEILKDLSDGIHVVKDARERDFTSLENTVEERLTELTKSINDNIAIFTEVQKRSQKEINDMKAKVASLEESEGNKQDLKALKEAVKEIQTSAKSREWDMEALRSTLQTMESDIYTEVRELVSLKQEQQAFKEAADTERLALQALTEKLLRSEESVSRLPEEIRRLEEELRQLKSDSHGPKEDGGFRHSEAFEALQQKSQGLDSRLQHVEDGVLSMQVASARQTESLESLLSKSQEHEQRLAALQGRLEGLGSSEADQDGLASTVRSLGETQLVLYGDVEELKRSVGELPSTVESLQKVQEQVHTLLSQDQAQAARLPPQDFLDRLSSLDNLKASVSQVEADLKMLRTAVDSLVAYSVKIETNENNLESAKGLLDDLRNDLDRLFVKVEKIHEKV
UniProt P56192: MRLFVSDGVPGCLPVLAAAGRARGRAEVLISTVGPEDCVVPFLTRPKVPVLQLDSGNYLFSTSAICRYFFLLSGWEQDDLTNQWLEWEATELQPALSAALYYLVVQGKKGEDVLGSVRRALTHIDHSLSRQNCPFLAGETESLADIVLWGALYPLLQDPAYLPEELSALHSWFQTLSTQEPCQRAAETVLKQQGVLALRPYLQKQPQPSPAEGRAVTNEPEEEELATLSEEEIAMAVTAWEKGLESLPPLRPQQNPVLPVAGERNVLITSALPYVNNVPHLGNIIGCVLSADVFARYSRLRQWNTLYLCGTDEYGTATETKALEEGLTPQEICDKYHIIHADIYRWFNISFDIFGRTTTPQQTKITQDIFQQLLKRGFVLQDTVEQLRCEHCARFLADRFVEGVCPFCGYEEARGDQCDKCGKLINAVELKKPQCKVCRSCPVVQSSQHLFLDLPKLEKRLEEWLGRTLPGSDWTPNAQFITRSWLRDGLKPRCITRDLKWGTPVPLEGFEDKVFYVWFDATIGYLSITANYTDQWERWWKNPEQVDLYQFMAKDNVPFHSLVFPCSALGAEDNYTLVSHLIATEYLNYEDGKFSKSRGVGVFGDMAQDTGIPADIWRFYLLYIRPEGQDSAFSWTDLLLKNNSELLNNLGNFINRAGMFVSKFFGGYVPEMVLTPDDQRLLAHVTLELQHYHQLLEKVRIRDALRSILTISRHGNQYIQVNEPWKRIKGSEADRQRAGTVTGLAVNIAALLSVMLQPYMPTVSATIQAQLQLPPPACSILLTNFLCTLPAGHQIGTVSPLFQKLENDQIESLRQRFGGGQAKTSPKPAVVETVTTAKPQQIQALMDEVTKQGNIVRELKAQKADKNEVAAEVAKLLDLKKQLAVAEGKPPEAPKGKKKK
UniProt P63313: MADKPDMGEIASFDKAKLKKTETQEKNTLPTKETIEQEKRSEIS
UniProt Q02252: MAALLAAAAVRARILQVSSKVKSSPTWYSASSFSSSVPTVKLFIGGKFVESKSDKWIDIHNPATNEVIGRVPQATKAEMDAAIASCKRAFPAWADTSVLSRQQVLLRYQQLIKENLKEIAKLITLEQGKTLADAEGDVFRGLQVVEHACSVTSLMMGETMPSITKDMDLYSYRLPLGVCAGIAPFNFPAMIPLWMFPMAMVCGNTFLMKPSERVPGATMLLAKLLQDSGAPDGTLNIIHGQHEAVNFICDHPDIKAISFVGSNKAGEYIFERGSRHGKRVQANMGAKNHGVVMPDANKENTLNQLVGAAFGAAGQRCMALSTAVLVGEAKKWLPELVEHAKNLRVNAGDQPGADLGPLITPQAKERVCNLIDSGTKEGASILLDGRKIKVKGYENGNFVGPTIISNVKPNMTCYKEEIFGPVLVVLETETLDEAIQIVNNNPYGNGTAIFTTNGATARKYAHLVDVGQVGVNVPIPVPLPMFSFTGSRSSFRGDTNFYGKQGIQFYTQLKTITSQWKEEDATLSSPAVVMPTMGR
UniProt Q02446, whole entry: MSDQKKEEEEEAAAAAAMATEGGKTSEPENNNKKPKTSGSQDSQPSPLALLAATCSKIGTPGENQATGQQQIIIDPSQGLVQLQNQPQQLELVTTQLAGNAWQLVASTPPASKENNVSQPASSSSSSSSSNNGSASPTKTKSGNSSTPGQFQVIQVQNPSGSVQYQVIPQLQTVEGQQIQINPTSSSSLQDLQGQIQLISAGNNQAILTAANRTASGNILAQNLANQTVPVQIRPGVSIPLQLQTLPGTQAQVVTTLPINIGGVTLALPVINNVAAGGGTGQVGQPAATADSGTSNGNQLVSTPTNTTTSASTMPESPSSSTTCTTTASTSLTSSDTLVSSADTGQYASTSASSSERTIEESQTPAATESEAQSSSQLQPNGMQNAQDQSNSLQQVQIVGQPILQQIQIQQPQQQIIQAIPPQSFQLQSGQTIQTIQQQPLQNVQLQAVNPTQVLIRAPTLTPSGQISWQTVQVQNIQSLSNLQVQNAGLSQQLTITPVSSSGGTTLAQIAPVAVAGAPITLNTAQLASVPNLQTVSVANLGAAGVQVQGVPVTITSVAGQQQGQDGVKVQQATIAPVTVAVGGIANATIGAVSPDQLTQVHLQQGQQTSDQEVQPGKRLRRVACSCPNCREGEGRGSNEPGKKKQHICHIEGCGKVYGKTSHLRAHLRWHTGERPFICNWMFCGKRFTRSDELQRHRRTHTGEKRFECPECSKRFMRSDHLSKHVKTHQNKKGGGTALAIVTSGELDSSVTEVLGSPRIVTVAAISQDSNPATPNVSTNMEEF

Row | Target | NP40-soluble protein abundance (concentration: 1mM) | NP40-soluble protein abundance (concentration: 2mM) | NP40-soluble protein abundance (concentration: 4mM) | NP40-soluble protein abundance (concentration: 6mM) | NP40-soluble protein abundance (concentration: 8mM) | NP40-soluble protein abundance (concentration: 10mM)
1 | ARF3 (UniProt P61204) | 0.951 ± 0.046 | 0.854 ± 0.12 | 0.999 ± 0.027 | 1.04 ± 0.11 | 1.12 ± 0.12 | 1.05 ± 0.034
2 | UniProt P84095 | 0.96 ± 0.038 | 0.936 ± 0.013 | 0.925 ± 0.022 | 0.97 ± 0.079 | 0.975 ± 0.029 | 0.967 ± 0.04
3 | UniProt P56181 and related entries | 1 ± 0.064 | 1.06 ± 0.012 | 0.986 ± 0.06 | 0.971 ± 0.083 | 0.931 ± 0.066 | 0.968 ± 0.066
4 | ARG2 (UniProt P78540) | 0.983 ± 0.026 | 1.02 ± 0.033 | 1.02 ± 0.033 | 1.01 ± 0.027 | 0.997 ± 0.019 | 0.985 ± 0.038
5 | UniProt P62280 | 0.953 ± 0.064 | 0.906 ± 0.075 | 0.857 ± 0.13 | 0.844 ± 0.1 | 0.777 ± 0.083 | 0.821 ± 0.13
6 | MRPS6 (UniProt P82932) | 0.979 ± 0.026 | 1 ± 0.045 | 0.959 ± 0.007 | 0.984 ± 0.06 | 0.998 ± 0.052 | 0.959 ± 0.034
7 | UniProt P62249 | 0.995 ± 0.061 | 0.929 ± 0.1 | 0.962 ± 0.12 | 0.891 ± 0.079 | 0.858 ± 0.056 | 0.915 ± 0.13
8 | XIAP (UniProt P98170) | 1.01 ± 0.033 | 1.01 ± 0.033 | 1.02 ± 0.057 | 0.97 ± 0.026 | 0.987 ± 0.045 | 0.985 ± 0.053
9 | CDR2 (UniProt Q01850) | 0.959 ± 0.01 | 0.943 ± 0.0068 | 0.964 ± 0.048 | 0.9699 ± 0.001 | 0.958 ± 0.015 | 0.971 ± 0.025
10 | UniProt P61086 and related entries | 0.979 ± 0.049 | 0.948 ± 0.032 | 0.962 ± 0.05 | 0.953 ± 0.025 | 0.975 ± 0.055 | 0.938 ± 0.066
11 | UniProt P68371 | 1.13 ± 0.13 | 1.04 ± 0.037 | 1.1 ± 0.11 | 0.976 ± 0.023 | 1.05 ± 0.088 | 0.958 ± 0.078
12 | YWHAH (UniProt Q04917) | 1.01 ± 0.046 | 1.12 ± 0.17 | 1.01 ± 0.078 | 1.02 ± 0.075 | 1.01 ± 0.033 | 0.991 ± 0.11
13 | UniProt P63000 and related entries | 0.958 ± 0.038 | 0.929 ± 0.088 | 0.901 ± 0.085 | 0.945 ± 0.047 | 0.942 ± 0.021 | 0.919 ± 0.047
14 | UniProt P62834 | 1.02 ± 0.015 | 0.958 ± 0.055 | 1.03 ± 0.022 | 0.991 ± 0.029 | 1.03 ± 0.02 | 1.027 ± 0.0062
15 | TPM4 (UniProt P67936) | 1.21 ± 0.19 | 1.42 ± 0.15 | 1.27 ± 0.3 | 1.35 ± 0.3 | 1.44 ± 0.047 | 1.24 ± 0.16
16 | UniProt P63279 | 0.993 ± 0.076 | 1.01 ± 0.076 | 1.01 ± 0.1 | 1.04 ± 0.12 | 1.12 ± 0.07 | 1.07 ± 0.066
17 | UniProt Q02086 and related entries | 1.02 ± 0.032 | 1.04 ± 0.067 | 1.04 ± 0.05 | 1.01 ± 0.047 | 1.04 ± 0.046 | 1.01 ± 0.022
18 | UniProt Q06330 and related entries | 0.972 ± 0.076 | 0.964 ± 0.032 | 1.03 ± 0.041 | 1.07 ± 0.12 | 1.13 ± 0.1 | 1.1 ± 0.1
19 | UniProt P60604 and related entries | 1.01 ± 0.029 | 0.996 ± 0.1 | 1.02 ± 0.068 | 1.02 ± 0.077 | 1.03 ± 0.064 | 1.03 ± 0.055
20 | UniProt P78362 and related entries | 0.958 ± 0.015 | 1.05 ± 0.078 | 1.05 ± 0.021 | 1.15 ± 0.06 | 1.17 ± 0.063 | 1.29 ± 0.13
21 | MRPS9 (UniProt P82933) | 0.984 ± 0.073 | 0.99 ± 0.079 | 0.966 ± 0.14 | 0.971 ± 0.14 | 0.945 ± 0.13 | 0.952 ± 0.17
22 | UniProt P60953 and related entries | 1.06 ± 0.038 | 1.04 ± 0.057 | 0.988 ± 0.037 | 0.997 ± 0.02 | 0.984 ± 0.031 | 0.965 ± 0.025
23 | CKAP4 (UniProt Q07065) | 1.03 ± 0.016 | 1.09 ± 0.035 | 1.08 ± 0.024 | 1.09 ± 0.031 | 1.06 ± 0.017 | 1.079 ± 0.0084
24 | UniProt P82912 and related entries | 1.02 ± 0.088 | 1.04 ± 0.073 | 1 ± 0.11 | 0.99 ± 0.12 | 0.994 ± 0.12 | 1.03 ± 0.14
25 | MARS (UniProt P56192) | 0.962 ± 0.073 | 0.934 ± 0.095 | 0.946 ± 0.12 | 0.948 ± 0.13 | 0.928 ± 0.11 | 0.907 ± 0.14
26 | SPAG1 (UniProt Q07617) | 0.974 ± 0.019 | 1.02 ± 0.034 | 0.986 ± 0.028 | 0.98 ± 0.011 | 1 ± 0.013 | 1.01 ± 0.022
27 | UniProt P63313 | 1.05 ± 0.036 | 1.03 ± 0.11 | 1.01 ± 0.043 | 0.981 ± 0.039 | 0.949 ± 0.027 | 0.956 ± 0.06
28 | ALDH6A1 (UniProt Q02252) | 0.983 ± 0.033 | 0.938 ± 0.029 | 0.961 ± 0.026 | 0.993 ± 0.041 | 0.99 ± 0.032 | 0.967 ± 0.024
29 | SP4 (UniProt Q02446) | 1.02 ± 0.03 | 1.04 ± 0.047 | 0.999 ± 0.014 | 1.01 ± 0.017 | 1.01 ± 0.054 | 1.03 ± 0.032
30 | UniProt P60763 | 1.05 ± 0.035 | 0.957 ± 0.082 | 0.978 ± 0.062 | 1.01 ± 0.063 | 1.03 ± 0.058 | 1.02 ± 0.1

Given in markdown: part of the list above

| Row | Target | NP40-soluble protein abundance (concentration: 1mM) | NP40-soluble protein abundance (concentration: 2mM) | NP40-soluble protein abundance (concentration: 4mM) | NP40-soluble protein abundance (concentration: 6mM) | NP40-soluble protein abundance (concentration: 8mM) | NP40-soluble protein abundance (concentration: 10mM) |
| --- | --- | --- | --- | --- | --- | --- | --- |
| 14 | UniProt P62834 | 1.02 ± 0.015 | 0.958 ± 0.055 | 1.03 ± 0.022 | 0.991 ± 0.029 | 1.03 ± 0.02 | 1.027 ± 0.0062 |
| 15 | TPM4 (UniProt P67936) | 1.21 ± 0.19 | 1.42 ± 0.15 | 1.27 ± 0.3 | 1.35 ± 0.3 | 1.44 ± 0.047 | 1.24 ± 0.16 |
| 16 | UniProt P63279 | 0.993 ± 0.076 | 1.01 ± 0.076 | 1.01 ± 0.1 | 1.04 ± 0.12 | 1.12 ± 0.07 | 1.07 ± 0.066 |
| 17 | UniProt Q02086 and related entries | 1.02 ± 0.032 | 1.04 ± 0.067 | 1.04 ± 0.05 | 1.01 ± 0.047 | 1.04 ± 0.046 | 1.01 ± 0.022 |
| 18 | UniProt Q06330 and related entries | 0.972 ± 0.076 | 0.964 ± 0.032 | 1.03 ± 0.041 | 1.07 ± 0.12 | 1.13 ± 0.1 | 1.1 ± 0.1 |
| 19 | UniProt P60604 and related entries | 1.01 ± 0.029 | 0.996 ± 0.1 | 1.02 ± 0.068 | 1.02 ± 0.077 | 1.03 ± 0.064 | 1.03 ± 0.055 |

Source: the supplement of paper PMC6411743
